Values of other authors in US20180319855A1, “GENETICALLY MUTATED AEQUORIN-BASED BIOSENSORS WITH EXTRA SENSITIVITY TO CALCIUM AND IMPROVED BIOLUMINESCENCE INTENSITY” (CENTRE NATIONAL DE LA RECHERCHE SCIENTIFIQUE (CNRS), priority 2015, published 2018).
Numbering of substitutions follows the chain as printed. Names may count otherwise. Some entries share one result that the patent states for a list of compounds.

B1: V44A: aequorin mutant, valine 44 replaced by alanine (protein)
chain: SKLTSDFDNPRWIGRHKHMFNFLDVNHNGKISLDEMVYKASDIAINNLGATPEQAKRHKDAVEAFFGGAGMKYGVETDWPAYIEGWKKLATDELEKYAKNEPTLIRIWGDALFDIVDKDQNGAITLDEWKAYTKAAGIIQSSEDCEETFRVCDIDESGQLDVDEMTRQHLGFWYTMDPACEKLYGGAVP
B2: M19C: aequorin mutant, methionine 19 replaced by cysteine (Dikici et al. 2009b) (protein)
chain: B1 chain with M19C, A44V
B3: F113Y: aequorin mutant, phenylalanine 113 replaced by tyrosine (Dikici et al. 2009b) (protein)
chain: B1 chain with A44V, F113Y
B4: E128G: aequorin mutant, glutamic acid 128 replaced by glycine (Tsuzuki et al. 2005) (protein)
chain: B1 chain with A44V, E128G
B5: D153G: aequorin mutant, aspartic acid 153 replaced by glycine (Tsuzuki et al. 2005) (protein)
chain: B1 chain with A44V, D153G

Tests used:
[1] = Tricoire et al. 2006; cited from earlier work
[2] = Dikici et al. 2009b; cited from earlier work
[3] = Tsuzuki et al. 2005; cited from earlier work

| Molecule | faster decay rate compared to wt-aequorin [2] | relative total emitted light at 40° C. compared to wt-aequorin [3] | also measured |
| --- | --- | --- | --- |
| B1 |  |  | relative light intensity compared to wt-aequorin [1]: at most 1.9 times |
| B2 | at most 1.4 times |  |  |
| B3 | at most 1.4 times |  |  |
| B4 |  | at most 1.2 times |  |
| B5 |  | at most 1.2 times |  |
